In PubChem BioAssay AID624491 (Broad Institute, 2012):
Among all 1,800 compounds or so, about 1,400 (78%) were called active. Not shown: some 2% with an inconclusive outcome.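 The calls were made as follows: active = fitted curve crossing a set activation limit at or below the highest valid dose tested; inconclusive = flat fit at 30 to 70% activation, or poor fit; inactive = the rest, including signal decreases.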 So high a share suggests a set chosen from earlier hits. This is a selection; strong and weak results do not stand in their true shares. Measured potencies and affinities stand elsewhere.

Assay: N-linked glycosylation inhibitors, luciferase reporter, dose response, D54 ERlucT cells, luminescence, cherry-picks (AID 624491);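 also: signal gain reflects blocked N-linked glycosylation of a luciferase reporter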
Details: 24 h

| Compound | activation (NLG inhibition) (at 19.5 µM (top of the series)) | activation (NLG inhibition) (at 5 µM (top of the series)) |
| --- | --- | --- |
| COC(=O)C1=C(c2cc3ccccc3s2)C[C@@H]2CC[C@H]1N2C(=O)N1CCCCC1 | inactive: 19.7% |  |
| CN(C)c1ccc(/C=C/c2cc[n+](C)c3ccccc23)cc1 | inactive: 72.2% | inactive: -37.9% |
| CC(=O)OC1CC[C@]2(C#N)[C@H]3CC[C@]4(C)[C@H](C5C=CC(=O)O5)CCC4(O)C3CCC2(O)C1 (stereo partly specified) | inactive: -11.3% |  |
| CN(C)c1ccc(/C=C/C=C/c2sc3ccccc3[n+]2C)cc1 | inactive: -8.7% |  |
| CN1CN(c2ccccc2)C2(CCN(CCCSc3ccccc3NC(=O)/C=C/c3ccccc3)CC2)C1=O | inactive: 130% |  |
| CC[n+]1c(/C=C/C=C/c2ccc(N(C)C)cc2)sc2ccccc21 | inactive: -10% |  |
| CCC1C(c2cc(OC)c(OC)c(OC)c2)c2cc3c(cc2OC1N1CCCC1)OCO3 (stereo unspecified) | inactive: 8.96% |  |
| CNC(=O)c1cccn(Cc2cccc(C(F)(F)F)c2)c1=O | inactive: 125% |  |
| CC(C)N1C(=O)/C(=C/C=C/c2ccco2)C(=O)N(Cc2ccco2)C1=O | inactive: 21.9% |  |
| CCC(C)OC(=O)c1c(N)n(Cc2cccs2)c2nc3ccccc3nc12 (stereo unspecified) | inactive: 0.113% |  |
| Cc1cccn2c(=O)c3cc(C(=O)N4CCC5(CC4)OCCO5)n(C)c3nc12 | inactive: 17.5% |  |
| Nc1c(C(=O)OCC2CCCO2)c2nc3ccccc3nc2n1Cc1cccs1 (stereo unspecified) | inactive: 40.8% |  |
| COC12CCC3(CC1C(C)(O)C(C)(C)C)[C@H]1Cc4ccc(O)c5c4[C@@]3(CCN1CC1CC1)C2O5 (stereo partly specified) | inactive: -28.6% |  |
| COc1cc2c(c(OC)c1OC)-c1ccc(O)cc1[C@@H](NC(C)=O)CC2 | inactive: 49% |  |
| O=C1Nc2ccccc2/C1=C/c1cnc[nH]1 | inactive: 7.56% |  |
